# Melanoma cell counts after drug treatment

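The test systems are human melanoma cell lines, treated with a pair of drugs for 72 h and then stained and imaged. The read-out is cell count (nuclei) in % of the DMSO control; lower values mean stronger growth inhibition or killing. Every drug was used at one fixed concentration, the higher of two screened. No replicate spread is given; individual values may be noisy.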
An unselected part of the screen is shown.

All values are for the listed drug together with palbociclib (0.2 µM): CC(=O)c1c(C)c2cnc(Nc3ccc(N4CCNCC4)cn3)nc2n(C2CCCC2)c1=O

With CCCCCCCCCCCC1=C(O)C(=O)C=C(O)C1=O at 6 µM the screen read C32: 80.7; COLO 800: 72.4; WM451Lu: 58.4; COLO 792: 38.3; WM3619: 50.8. With O=C(O)c1ccc(-c2c[nH]c3ncc(-c4ccccc4)cc23)cc1C1CCCC1 at 0.8 µM the screen read C32: 64.1; COLO 800: 66.2; WM451Lu: 74.6; COLO 792: 33.2; WM3619: 59.7. For O=C(O)C(=O)Nc1sc2c(c1C(=O)O)CCNC2 at 8.33 µM the values were C32: 84.9; COLO 800: 68.5; WM451Lu: 65.3; COLO 792: 43.5; WM3619: 60.4.

With O=C1NC(=O)/C(=C/c2ccc(-c3ccc(F)cc3O)o2)S1 at 5 µM the screen read C32: 73.2; COLO 800: 102; WM451Lu: 54.7; COLO 792: 48.3; WM3619: 54.7. Results for COc1ccc(COc2ccc(Cc3cnc(N)nc3N)cc2OC)cc1 at 5 µM are C32: 67.2; COLO 800: 73.7; WM451Lu: 72.9; COLO 792: 60.0; WM3619: 53.2. With NC(=O)c1ccc(N(C(N)=O)c2c(F)cccc2F)nc1-c1ccc(F)cc1F at 2 µM the screen read C32: 79.4; COLO 800: 107; WM451Lu: 80.2; COLO 792: 60.7; WM3619: 69.3.

For O=c1[nH]nc(Sc2ncc([N+](=O)[O-])s2)n1-c1ccc2c(c1)OCCO2 at 1 µM the values were C32: 80.6; COLO 800: 82.7; WM451Lu: 79.4; COLO 792: 50.7; WM3619: 74.1. O=C(Nc1cc(C(F)(F)F)cc(C(F)(F)F)c1)c1cc(Cl)ccc1O at 0.08 µM gave C32: 63.6; COLO 800: 73.2; WM451Lu: 64.1; COLO 792: 45.3; WM3619: 62.1. For O=S(=O)(c1ccccc1)N(CC(F)(F)F)c1ccc(C(O)(C(F)(F)F)C(F)(F)F)cc1 at 7 µM the values were C32: 74.2; COLO 800: 61.1; WM451Lu: 84.1; COLO 792: 60.9; WM3619: 71.2.

COc1cc(Nc2ncc(F)c(Nc3ccc4c(n3)NC(=O)C(C)(C)O4)n2)cc(OC)c1OC at 2 µM gave C32: 89.4; COLO 800: 43.6; WM451Lu: 58.5; COLO 792: 22.5; WM3619: 53.1. With CC(C)(C)c1cnc(CSc2cnc(NC(=O)C3CCNCC3)s2)o1 at 0.05 µM the screen read C32: 67.6; COLO 800: 57.7; WM451Lu: 55.6; COLO 792: 49.5; WM3619: 54.1. CN(NC(=O)CC(=O)NN(C)C(=S)c1ccccc1)C(=S)c1ccccc1 at 0.03 µM gave C32: 30.2; COLO 800: 14.3; WM451Lu: 70.6; COLO 792: 25.4; WM3619: 13.0.

For Nc1nc(F)nc2c1ncn2[C@@H]1O[C@H](CO)[C@@H](O)[C@@H]1O at 1 µM the values were C32: 73.6; COLO 800: 87.9; WM451Lu: 51.8; COLO 792: 56.2; WM3619: 60.9. With Cc1ccc(NC(=O)c2cccc(N(C)C)c2)cc1NC(=O)c1ccc(O)cc1 at 10 µM the screen read C32: 80.5; COLO 800: 52.7; WM451Lu: 66.1; COLO 792: 50.4; WM3619: 57.6. OCCn1cc(-c2cnc3nnn(Cc4ccc5ncccc5c4)c3n2)cn1 at 5 µM gave C32: 67.7; COLO 800: 74.0; WM451Lu: 71.7; COLO 792: 55.9; WM3619: 78.3.

With Cn1cc(/C=C2\C(=O)Nc3cccnc32)c2ccccc21 at 2 µM the screen read C32: 82.0; COLO 800: 60.2; WM451Lu: 81.2; COLO 792: 54.9; WM3619: 52.1. Results for Cc1ccc(Nc2nccc(N(C)c3ccc4c(C)n(C)nc4c3)n2)cc1S(N)(=O)=O at 2 µM are C32: 79.9; COLO 800: 80.0; WM451Lu: 55.5; COLO 792: 45.9; WM3619: 67.6. With COc1ccc(C2=N[C@@H](c3ccc(Cl)cc3)[C@@H](c3ccc(Cl)cc3)N2C(=O)N2CCNC(=O)C2)c(OC(C)C)c1 at 0.5 µM the screen read C32: 60.8; COLO 800: 71.6; WM451Lu: 55.8; COLO 792: 37.0; WM3619: 69.6.

The last 2 entries again:

{"second drug": "Cc1ccc(Nc2nccc(N(C)c3ccc4c(C)n(C)nc4c3)n2)cc1S(N)(=O)=O at 2 µM", "C32": 79.9, "COLO 800": 80.0, "WM451Lu": 55.5, "COLO 792": 45.9, "WM3619": 67.6}
{"second drug": "COc1ccc(C2=N[C@@H](c3ccc(Cl)cc3)[C@@H](c3ccc(Cl)cc3)N2C(=O)N2CCNC(=O)C2)c(OC(C)C)c1 at 0.5 µM", "C32": 60.8, "COLO 800": 71.6, "WM451Lu": 55.8, "COLO 792": 37.0, "WM3619": 69.6}

Data from the primary screen of doi:10.1371/journal.pone.0140310, rounded.